No constants are given. Whether binding was seen depends on the method and setting. In cells and extracts the contact can be indirect. Some entries that bind do so weakly or less than the wild type.
Biological target: CDK12, native (endogenous) human (human) (UniProt Q9NYV4)
Assay: co-immunoprecipitation from U2OS cells with or without tBHQ (FIG. 7E)

Protein sequences, listed by entry. Tags and fused reporters are not part of them.
UniProt Q9NYV4: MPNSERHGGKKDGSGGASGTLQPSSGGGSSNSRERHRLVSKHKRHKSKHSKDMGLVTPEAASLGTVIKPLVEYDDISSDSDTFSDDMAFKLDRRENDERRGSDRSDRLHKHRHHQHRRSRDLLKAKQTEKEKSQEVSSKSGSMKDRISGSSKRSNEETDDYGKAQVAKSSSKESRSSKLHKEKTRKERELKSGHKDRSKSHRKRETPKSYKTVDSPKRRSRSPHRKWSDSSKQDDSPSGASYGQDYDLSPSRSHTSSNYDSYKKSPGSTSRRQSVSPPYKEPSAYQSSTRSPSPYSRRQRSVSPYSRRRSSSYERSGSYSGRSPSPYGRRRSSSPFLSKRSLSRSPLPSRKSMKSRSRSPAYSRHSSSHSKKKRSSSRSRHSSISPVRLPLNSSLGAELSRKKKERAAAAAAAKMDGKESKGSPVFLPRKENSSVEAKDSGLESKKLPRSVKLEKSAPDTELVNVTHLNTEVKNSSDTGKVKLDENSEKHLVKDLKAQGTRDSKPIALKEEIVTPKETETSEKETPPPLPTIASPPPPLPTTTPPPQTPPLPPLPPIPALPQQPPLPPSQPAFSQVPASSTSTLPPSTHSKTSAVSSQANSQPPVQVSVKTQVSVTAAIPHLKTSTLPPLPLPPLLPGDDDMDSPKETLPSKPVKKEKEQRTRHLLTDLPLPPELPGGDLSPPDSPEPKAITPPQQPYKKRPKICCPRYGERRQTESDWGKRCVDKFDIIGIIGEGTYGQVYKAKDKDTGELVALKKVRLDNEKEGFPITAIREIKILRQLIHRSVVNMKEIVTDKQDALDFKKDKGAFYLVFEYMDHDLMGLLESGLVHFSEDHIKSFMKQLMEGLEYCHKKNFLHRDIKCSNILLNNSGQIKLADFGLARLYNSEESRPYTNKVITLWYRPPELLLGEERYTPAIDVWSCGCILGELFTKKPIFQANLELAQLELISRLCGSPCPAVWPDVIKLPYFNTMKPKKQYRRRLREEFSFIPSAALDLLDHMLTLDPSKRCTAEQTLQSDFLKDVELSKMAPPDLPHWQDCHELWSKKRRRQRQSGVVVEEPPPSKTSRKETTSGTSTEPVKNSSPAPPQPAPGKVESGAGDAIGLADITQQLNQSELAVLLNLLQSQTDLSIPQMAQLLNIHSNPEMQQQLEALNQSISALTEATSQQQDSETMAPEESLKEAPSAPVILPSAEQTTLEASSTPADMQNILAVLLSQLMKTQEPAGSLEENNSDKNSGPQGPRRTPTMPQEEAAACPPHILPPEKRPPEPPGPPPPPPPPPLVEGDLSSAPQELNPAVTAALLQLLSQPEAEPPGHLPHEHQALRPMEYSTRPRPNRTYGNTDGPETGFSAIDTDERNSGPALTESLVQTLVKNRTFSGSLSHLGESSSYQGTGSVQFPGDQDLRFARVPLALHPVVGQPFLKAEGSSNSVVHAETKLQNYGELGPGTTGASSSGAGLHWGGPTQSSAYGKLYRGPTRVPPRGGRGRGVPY
UniProt O75909: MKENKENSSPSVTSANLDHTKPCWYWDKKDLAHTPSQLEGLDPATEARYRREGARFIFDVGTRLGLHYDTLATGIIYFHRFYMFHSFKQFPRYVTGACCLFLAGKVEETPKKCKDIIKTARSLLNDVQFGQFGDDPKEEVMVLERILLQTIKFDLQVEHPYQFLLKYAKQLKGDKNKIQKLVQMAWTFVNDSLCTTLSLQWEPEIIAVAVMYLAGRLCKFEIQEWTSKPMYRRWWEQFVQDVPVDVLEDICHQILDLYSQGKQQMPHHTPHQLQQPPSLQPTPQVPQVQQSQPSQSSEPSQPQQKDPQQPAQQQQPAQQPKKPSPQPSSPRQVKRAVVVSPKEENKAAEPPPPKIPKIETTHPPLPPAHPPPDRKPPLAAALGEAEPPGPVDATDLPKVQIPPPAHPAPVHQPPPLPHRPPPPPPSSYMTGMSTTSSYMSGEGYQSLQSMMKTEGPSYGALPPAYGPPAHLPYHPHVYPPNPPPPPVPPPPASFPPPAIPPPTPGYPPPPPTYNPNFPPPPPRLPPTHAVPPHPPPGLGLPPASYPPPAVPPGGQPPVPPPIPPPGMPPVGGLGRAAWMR

CCNK (from UniProt O75909 1-580)
binding: binds
